No constants are given. Whether binding was seen depends on the method and setting. Some entries that bind do so weakly or less than the wild type.
Molecular target: T1, B7H3 protein expressed on cells (human) (UniProt Q5ZPR3)
T1 sequence: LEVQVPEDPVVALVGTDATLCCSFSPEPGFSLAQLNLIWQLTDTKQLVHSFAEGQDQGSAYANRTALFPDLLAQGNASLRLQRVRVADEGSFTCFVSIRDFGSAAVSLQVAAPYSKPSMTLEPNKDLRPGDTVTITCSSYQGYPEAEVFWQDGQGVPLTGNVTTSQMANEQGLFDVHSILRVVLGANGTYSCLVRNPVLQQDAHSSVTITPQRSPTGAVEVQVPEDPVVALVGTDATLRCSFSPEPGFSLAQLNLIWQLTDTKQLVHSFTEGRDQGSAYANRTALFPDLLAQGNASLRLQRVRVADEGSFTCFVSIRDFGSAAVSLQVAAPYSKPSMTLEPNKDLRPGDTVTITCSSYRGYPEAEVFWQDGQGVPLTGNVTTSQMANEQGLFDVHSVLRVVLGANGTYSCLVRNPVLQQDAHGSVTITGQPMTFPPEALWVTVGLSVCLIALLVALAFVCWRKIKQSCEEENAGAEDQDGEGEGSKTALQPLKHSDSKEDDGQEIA
Assay: flow cytometry on B7H3-expressing cells, PE-labeled anti-human IgG detection

binding: binds
B1: P28832158 (antibody, human IgG1, kappa, V domains shown)
VH: QVQLVQSGAEVKKPGASVKVSCKASGYTFTMNIIHWVRQAPGQGLEWMGWIHPGSGAIKYAQKLQGRVTMTTDTSTSTAYMELRSLRSDDTAVYYCARHGGTGRGAMDYWGQGTLVTVSS
VL: EIVLTQSPGTLSLSPGERATLSCRASQSVSTSAYSYMHWYQQKPGQAPRLLIYLASNLESGIPDRFSGSGSGTDFTLTISRLEPEDFAVYYCQQSRELPYTFGQGTKLEIKR
notes: Produced in Expi293 cells; also called M-87_G1; VH6.32/VL7.00
